According to the supplement of paper PMC12819154, “High-throughput peptide-centric local stability assay extends protein–ligand identification to membrane proteins, tissues and bacteria” (Nature Structural & Molecular Biology, 2025):
This is one part of the list. Most values lie at the level of the controls, where differences are scatter.

Sequences of proteins named here, by UniProt entry; tags and fusion partners are left off. A change or cut given only in a name is not applied to a line headed by its entry.
UniProt Q99LP6: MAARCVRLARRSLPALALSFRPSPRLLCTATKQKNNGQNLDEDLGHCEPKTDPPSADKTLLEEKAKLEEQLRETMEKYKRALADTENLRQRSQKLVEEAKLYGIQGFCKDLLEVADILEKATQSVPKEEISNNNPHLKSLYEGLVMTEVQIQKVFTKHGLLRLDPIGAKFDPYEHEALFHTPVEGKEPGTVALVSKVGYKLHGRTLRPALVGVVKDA
UniProt Q9CR25: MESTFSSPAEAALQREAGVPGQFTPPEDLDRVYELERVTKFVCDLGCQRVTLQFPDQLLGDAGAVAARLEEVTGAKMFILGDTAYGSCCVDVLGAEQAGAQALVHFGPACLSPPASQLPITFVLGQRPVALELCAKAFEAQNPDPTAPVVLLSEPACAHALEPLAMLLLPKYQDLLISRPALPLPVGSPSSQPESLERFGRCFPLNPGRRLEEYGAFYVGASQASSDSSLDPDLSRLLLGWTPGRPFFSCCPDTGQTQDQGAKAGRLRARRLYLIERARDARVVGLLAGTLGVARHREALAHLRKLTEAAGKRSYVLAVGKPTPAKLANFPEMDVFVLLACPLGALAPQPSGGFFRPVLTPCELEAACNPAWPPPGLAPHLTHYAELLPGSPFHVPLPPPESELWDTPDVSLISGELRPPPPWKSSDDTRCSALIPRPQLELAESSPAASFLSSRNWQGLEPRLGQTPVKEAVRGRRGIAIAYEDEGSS
UniProt Q99NH0: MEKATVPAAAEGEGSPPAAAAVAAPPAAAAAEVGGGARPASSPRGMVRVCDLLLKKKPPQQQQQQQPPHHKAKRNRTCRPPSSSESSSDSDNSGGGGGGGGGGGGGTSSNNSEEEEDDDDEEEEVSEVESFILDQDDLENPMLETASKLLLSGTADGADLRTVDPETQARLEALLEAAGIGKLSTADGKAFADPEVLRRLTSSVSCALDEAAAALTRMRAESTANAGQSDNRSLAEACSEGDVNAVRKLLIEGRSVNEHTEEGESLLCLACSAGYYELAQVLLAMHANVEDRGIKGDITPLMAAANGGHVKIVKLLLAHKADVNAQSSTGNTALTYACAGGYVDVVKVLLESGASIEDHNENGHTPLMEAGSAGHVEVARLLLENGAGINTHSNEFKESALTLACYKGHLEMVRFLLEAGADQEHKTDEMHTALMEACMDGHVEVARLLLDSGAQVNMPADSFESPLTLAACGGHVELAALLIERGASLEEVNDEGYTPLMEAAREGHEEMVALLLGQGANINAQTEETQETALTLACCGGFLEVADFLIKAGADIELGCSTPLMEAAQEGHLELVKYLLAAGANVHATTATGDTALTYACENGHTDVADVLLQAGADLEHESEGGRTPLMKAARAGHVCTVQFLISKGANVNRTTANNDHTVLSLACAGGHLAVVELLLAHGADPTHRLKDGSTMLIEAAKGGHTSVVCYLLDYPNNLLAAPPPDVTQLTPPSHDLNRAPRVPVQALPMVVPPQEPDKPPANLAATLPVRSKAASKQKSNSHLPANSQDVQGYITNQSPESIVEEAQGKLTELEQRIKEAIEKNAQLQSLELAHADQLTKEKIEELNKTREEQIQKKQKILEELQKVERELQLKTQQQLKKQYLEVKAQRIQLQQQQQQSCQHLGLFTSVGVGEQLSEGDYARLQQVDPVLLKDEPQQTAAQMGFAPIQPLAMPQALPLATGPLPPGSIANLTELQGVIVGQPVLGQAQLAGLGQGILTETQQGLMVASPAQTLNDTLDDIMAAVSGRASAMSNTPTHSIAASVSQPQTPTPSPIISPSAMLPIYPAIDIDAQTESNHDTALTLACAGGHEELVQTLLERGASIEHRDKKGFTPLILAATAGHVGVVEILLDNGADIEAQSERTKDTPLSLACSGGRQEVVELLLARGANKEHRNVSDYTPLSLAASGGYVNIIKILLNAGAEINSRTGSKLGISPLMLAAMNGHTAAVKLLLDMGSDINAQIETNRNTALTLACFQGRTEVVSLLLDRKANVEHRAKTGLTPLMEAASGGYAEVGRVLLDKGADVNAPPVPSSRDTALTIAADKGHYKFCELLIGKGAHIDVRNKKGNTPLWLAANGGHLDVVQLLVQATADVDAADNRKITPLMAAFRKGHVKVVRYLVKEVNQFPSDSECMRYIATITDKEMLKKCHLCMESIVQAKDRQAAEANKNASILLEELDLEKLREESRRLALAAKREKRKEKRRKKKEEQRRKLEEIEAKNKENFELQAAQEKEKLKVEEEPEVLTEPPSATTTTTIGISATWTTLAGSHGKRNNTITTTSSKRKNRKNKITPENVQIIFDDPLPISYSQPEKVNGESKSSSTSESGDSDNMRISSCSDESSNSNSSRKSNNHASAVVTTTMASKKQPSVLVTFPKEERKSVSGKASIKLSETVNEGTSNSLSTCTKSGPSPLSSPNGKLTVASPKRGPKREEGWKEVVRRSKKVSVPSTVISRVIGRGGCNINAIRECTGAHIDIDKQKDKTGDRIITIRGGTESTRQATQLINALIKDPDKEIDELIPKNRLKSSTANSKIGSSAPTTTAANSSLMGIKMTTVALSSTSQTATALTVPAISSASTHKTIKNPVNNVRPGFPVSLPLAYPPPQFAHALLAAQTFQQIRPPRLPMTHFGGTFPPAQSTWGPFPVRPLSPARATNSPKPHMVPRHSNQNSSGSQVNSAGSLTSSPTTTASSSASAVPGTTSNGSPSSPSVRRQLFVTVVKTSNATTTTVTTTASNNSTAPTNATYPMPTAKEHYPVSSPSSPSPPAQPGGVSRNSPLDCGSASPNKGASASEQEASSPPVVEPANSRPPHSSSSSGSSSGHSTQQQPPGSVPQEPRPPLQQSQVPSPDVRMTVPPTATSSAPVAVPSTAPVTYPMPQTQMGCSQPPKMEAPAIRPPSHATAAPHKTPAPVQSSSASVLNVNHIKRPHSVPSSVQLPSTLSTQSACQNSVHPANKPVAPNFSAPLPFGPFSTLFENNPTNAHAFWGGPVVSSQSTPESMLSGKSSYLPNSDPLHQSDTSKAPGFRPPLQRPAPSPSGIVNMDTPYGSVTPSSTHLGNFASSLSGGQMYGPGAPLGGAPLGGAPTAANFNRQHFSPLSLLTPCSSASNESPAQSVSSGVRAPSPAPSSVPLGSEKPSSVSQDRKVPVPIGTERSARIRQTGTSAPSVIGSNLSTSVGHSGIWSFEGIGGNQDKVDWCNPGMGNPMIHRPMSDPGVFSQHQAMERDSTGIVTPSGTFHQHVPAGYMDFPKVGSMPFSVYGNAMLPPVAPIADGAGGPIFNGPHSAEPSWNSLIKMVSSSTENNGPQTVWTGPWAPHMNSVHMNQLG
UniProt Q9CPW3: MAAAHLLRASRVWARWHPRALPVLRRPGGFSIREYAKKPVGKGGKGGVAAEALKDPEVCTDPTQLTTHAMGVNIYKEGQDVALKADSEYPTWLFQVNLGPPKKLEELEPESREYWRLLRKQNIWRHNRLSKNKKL
UniProt Q9CQH0: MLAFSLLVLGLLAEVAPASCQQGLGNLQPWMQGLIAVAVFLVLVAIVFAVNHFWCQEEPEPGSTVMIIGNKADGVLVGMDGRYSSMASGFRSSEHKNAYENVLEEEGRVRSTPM
UniProt Q9CR13: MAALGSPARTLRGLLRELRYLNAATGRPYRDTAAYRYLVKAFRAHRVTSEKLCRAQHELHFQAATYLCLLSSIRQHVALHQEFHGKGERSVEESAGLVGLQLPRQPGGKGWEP
UniProt Q99P72: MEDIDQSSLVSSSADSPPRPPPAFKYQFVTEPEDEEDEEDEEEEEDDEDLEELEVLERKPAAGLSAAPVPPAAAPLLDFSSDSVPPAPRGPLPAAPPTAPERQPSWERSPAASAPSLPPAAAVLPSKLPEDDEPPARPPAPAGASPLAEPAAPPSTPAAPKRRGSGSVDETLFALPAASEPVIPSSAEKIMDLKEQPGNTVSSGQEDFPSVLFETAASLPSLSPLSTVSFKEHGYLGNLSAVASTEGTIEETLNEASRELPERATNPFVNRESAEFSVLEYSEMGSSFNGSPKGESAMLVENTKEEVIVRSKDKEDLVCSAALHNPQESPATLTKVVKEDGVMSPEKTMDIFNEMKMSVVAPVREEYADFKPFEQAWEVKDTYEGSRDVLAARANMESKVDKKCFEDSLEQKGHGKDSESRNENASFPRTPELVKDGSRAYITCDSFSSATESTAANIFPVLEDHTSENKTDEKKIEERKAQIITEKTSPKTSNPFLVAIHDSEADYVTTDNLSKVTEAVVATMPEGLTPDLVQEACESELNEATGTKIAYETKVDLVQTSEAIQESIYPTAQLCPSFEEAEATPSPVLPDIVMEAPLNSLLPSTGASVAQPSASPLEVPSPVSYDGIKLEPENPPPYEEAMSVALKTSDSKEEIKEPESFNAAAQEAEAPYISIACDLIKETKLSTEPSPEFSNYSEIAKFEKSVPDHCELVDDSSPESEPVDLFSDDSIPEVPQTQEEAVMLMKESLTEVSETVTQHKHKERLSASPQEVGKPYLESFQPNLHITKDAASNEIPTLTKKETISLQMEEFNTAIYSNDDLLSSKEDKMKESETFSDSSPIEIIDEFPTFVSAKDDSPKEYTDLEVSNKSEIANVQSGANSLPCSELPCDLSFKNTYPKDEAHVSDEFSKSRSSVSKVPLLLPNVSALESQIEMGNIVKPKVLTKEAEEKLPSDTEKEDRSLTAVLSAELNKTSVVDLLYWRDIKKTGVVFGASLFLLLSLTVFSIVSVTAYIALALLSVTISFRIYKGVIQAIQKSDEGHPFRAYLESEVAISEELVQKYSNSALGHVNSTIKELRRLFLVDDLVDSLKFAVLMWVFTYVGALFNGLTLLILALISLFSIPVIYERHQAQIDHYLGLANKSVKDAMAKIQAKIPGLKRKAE
UniProt Q9CQJ2, whole entry: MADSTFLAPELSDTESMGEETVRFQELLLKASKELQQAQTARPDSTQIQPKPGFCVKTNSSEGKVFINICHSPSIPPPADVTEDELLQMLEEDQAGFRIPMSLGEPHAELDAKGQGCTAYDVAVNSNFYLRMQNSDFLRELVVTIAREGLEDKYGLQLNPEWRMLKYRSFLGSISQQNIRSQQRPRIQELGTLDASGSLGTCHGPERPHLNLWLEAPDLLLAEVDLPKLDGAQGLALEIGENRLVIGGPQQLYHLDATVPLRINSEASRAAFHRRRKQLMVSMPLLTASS
UniProt Q99MD9, whole entry: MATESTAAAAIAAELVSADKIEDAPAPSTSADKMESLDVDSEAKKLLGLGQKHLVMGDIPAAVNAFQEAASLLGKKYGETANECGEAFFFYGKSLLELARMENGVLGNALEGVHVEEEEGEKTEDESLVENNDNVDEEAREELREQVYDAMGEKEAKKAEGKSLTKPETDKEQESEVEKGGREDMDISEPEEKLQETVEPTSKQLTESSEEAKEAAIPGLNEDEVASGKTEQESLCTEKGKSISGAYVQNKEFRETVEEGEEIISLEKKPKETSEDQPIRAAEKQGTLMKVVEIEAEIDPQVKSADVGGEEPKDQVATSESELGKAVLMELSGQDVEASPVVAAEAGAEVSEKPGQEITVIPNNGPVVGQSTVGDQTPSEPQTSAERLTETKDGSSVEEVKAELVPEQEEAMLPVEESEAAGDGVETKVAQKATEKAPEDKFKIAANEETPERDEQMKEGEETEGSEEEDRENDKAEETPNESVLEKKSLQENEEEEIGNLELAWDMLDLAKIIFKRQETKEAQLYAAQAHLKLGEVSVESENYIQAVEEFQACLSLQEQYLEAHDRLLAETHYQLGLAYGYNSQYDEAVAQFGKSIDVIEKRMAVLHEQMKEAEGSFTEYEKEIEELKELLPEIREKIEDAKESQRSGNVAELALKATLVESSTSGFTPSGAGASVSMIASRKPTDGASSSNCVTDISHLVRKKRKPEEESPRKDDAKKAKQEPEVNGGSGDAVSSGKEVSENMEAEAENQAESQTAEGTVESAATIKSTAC
UniProt Q99M31: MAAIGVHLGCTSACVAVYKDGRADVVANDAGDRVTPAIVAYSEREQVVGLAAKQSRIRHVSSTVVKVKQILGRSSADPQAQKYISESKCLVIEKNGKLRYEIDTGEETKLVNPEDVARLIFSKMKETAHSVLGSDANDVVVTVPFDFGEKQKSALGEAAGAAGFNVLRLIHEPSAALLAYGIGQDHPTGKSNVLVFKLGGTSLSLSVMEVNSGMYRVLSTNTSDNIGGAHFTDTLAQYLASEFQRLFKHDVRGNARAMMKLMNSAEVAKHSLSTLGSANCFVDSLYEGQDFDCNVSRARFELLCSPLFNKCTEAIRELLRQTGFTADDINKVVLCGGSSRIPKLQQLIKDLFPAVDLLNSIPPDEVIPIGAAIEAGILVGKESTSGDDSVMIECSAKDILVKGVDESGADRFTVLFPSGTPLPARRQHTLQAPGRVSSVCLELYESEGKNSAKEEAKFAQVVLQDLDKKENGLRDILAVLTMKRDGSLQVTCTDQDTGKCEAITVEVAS
UniProt Q9CQB2: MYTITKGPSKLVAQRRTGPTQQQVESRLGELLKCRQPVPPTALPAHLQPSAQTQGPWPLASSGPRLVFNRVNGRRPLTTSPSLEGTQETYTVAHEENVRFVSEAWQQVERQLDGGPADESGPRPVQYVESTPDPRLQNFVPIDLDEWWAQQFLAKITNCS

Compound: CN[C@@H]1C[C@H]2O[C@@](C)([C@@H]1OC)n1c3ccccc3c3c4c(c5c6ccccc6n2c5c31)C(=O)NC4 [staurosporine]
Assay: log2 fold change of tryptic peptide abundance, ligand vs vehicle (limited proteolysis) (log2 ratio); higher = more trypsin-susceptible (destabilized)
Settings: ligand concentration: 20 uM; sample: mouse liver crude lysate; replicate design: treated separately

Row | Target | log2 fold change
1 | UniProt Q9CQL5 (peptide sequence: ENEAVAPEFTNRNPR, peptide start residue: 40) | -0.378
2 | UniProt Q99LP6 (peptide sequence: LEEQLRETMEK, peptide start residue: 67) | -0.361
3 | UniProt Q99LU0 (peptide sequence: VQTAVTMGK, peptide start residue: 79) | 0.056
4 | UniProt Q9CQL0 (peptide sequence: VHYDPEKDVHIYK, peptide start residue: 196) | 0.0671
5 | UniProt Q9CR25 (peptide sequence: NWQGLEPR, peptide start residue: 456) | -0.0657
6 | UniProt Q99NH0 (peptide sequence: NKENFELQAAQEK, peptide start residue: 1502) | 0.547
7 | UniProt Q9CQB7 (peptide sequence: KWQAASGQMEDTIEEK, peptide start residue: 22) | 0.366
8 | UniProt Q9CPW3 (peptide sequence: KLEELEPESR, peptide start residue: 103) | 0.0475
9 | UniProt Q9CQH0 (peptide sequence: ADGVLVGMDGR, peptide start residue: 72) | -0.135
10 | UniProt Q9CQ04 (peptide sequence: DYGQLLR, peptide start residue: 40) | -0.117
11 | UniProt Q9CR13 (peptide sequence: QHVALHQEFHGK, peptide start residue: 75) | 0.912
12 | UniProt Q9CQ43 (peptide sequence: HFIDVGAGVIDEDYR, peptide start residue: 90) | -0.189
13 | UniProt Q9CQW3 (peptide sequence: TDGCQHFCHPGQSSYMCSCAK, peptide start residue: 134) | 0.185
14 | UniProt Q9CQE8 (peptide sequence: NIHSSDWPK, peptide start residue: 50) | -0.444
15 | UniProt Q9CQ90 (peptide sequence: CKEVLEWR, peptide start residue: 48) | -0.189
16 | UniProt Q99P72 (peptide sequence: HQAQIDHYLGLANK, peptide start residue: 1128) | 0.449

Row | Target | log2 fold change
17 | UniProt Q9CQJ2 (peptide sequence: FQELLLK, peptide start residue: 24) | -0.0719
18 | UniProt Q99MD9 (peptide sequence: EAQLYAAQAHLK, peptide start residue: 522) | 0.165
19 | UniProt Q9CQX2 (peptide sequence: NSAEETWMVIHGR, peptide start residue: 32) | 0.133
20 | UniProt Q99M31 (peptide sequence: LIHEPSAALLAYGIGQDHPTGK, peptide start residue: 169) | 0.126
21 | UniProt Q99MY8 (peptide sequence: SQFTAESTHLNVGHR, peptide start residue: 601) | -0.48
22 | UniProt Q99LQ7 (peptide sequence: WGAQHAGAR, peptide start residue: 25) | -0.161
23 | UniProt Q99MJ9 (peptide sequence: KLSSNAVSHVTR, peptide start residue: 608) | 0.56
24 | UniProt Q9CQC9 (peptide sequence: IDRPEAISEER, peptide start residue: 136) | -0.135
25 | UniProt Q9CQD4 (peptide sequence: QKNQAINFLR, peptide start residue: 58) | 0.321
26 | UniProt Q9CQZ7 (peptide sequence: SADEPMTTFYK, peptide start residue: 86) | 0.393
27 | UniProt Q9CQV1 (peptide sequence: ALRQEFAASQAAADAR, peptide start residue: 23) | -0.091
28 | UniProt Q9CR02 (peptide sequence: LQWFHSHLDMK, peptide start residue: 55) | -0.165
29 | UniProt Q9CR21 (peptide sequence: LYDKIDPEKLSVNSHFMK, peptide start residue: 89) | 0.171
30 | UniProt Q9CQB2 (peptide sequence: TGPTQQQVESR, peptide start residue: 17) | 0.161
31 | UniProt Q9CPW4 (peptide sequence: DRAGSIVLK, peptide start residue: 73) | 0.325

Single entries from the entries so far.
Value for UniProt Q99LQ7 (peptide sequence: WGAQHAGAR, peptide start residue: 25) under log2 fold change: -0.161
Value for UniProt Q99M31 (peptide sequence: LIHEPSAALLAYGIGQDHPTGK, peptide start residue: 169) under log2 fold change: 0.126
